Results reported in article PMC6010280.
Results are given in words; binding and its absence hold for the method and conditions named. Binding seen in cells or lysates may run through a third protein. A yes stands for co-enrichment or nearness to the bait. Other partners may have been found.

T1: intein-BHMT (betaine homocysteine S-methyltransferase) (R. norvegicus) (UniProt O09171)
T1 sequence: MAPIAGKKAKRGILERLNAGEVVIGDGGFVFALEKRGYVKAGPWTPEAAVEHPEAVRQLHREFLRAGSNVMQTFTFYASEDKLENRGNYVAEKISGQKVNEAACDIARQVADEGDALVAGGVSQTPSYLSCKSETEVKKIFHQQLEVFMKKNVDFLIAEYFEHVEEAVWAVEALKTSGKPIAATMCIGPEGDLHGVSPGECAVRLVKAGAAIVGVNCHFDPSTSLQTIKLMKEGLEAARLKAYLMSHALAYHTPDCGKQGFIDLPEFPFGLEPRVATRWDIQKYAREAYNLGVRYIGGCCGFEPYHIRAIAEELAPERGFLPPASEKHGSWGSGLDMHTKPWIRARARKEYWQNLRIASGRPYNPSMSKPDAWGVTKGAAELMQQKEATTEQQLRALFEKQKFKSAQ


Molecular target: T1, intein-BHMT (betaine homocysteine S-methyltransferase) (R. norvegicus)
Test: affinity purification with mass spectrometry; same intein-BHMT chitin column after the salt gradient; proteins recovered together with BHMT upon intein excision with 30 mM 2-mercaptoethanol, 48 h at 23°C (strong interactors); LC-MS/MS; only the target purified

| binding | Binder |
| --- | --- |
| binds | Usher syndrome type-1C protein-binding protein 1 (protein, UniProt Q3T1I3 1-680) MSARATRPRSRRGRHPLPGELDPVAESSEEVDTTNGSFETKPELLQEHLGPSLQGPGNRIKEDCDVGSHGVLPLSPEERREPEVEAHQALQEAPLDTGPAEITAPNVYETLKCRLSSLEAVVAAWRRHSLSFSKPVEAEDRDPGAPGSFGNEEEASGPGQQEAAHFIERNAWLRLALGTREEELARTQASLQDAQAENETLQRQVQELEDSLMQLEASPPPSMLRAGRRNSNSSSSGAERRPWAPQDSPMAHPFLQRLRSDSSTQSFGCLSTQRPSPEMYLMEDQMGQLQGNIEKLKCFNRLLLAVLQGYKGRCESLSIKLGKREAEATALHLALQYSKDCEEVYEVLLALKTAGLGAGVGATNGDLQAAEKEASRLLVKKEVAMDVKTPQPSPEGSSVDKPTPEELAAQLHGYVQHLRERWALLKIPPVLDPATAPKPTMPHAEATVQTILEIQPGPTLPQLEKSQIQQDLAATRDGLADLVLRLQLAQREKRGLELREAALRAQGPALRLLLQQLRWEQAHLMGDGSSGGSSEDPSSEEEAGEDRQQHYQGPPALLGGQMGKVWDSETVSQELSASLTRAVDLRAQLQSLRRQLEQMAQKGRTRGAQSAELNRELCKAHSALALAFREAHRKQEEQCRKLEQQMARMQAQQAEELAVLTATARALGDPGAPQPVQTFL |
| binds | Serine/threonine-protein kinase TAO2 (protein, UniProt Q9JLS3 1-1235) MPAGGRAGSLKDPDVAELFFKDDPEKLFSDLREIGHGSFGAVYFARDVRNSEVVAIKKMSYSGKQSNEKWQDIIKEVRFLQKLRHPNTIQYRGCYLREHTAWLVMEYCLGSASDLLEVHKKPLQEVEIAAVTHGALQGLAYLHSHNMIHRDVKAGNILLSEPGLVKLGDFGSASIMAPANSFVGTPYWMAPEVILAMDEGQYDGKVDVWSLGITCIELAERKPPLFNMNAMSALYHIAQNESPALQSGHWSEYFRNFVDSCLQKIPQDRPTSEVLLKHRFVLRERPPTVIMDLIQRTKDAVRELDNLQYRKMKKILFQEAPNGPGAEAPEEEEEAEPYMHRAGTLTSLESSHSVPSMSISASSQSSSVNSLADASDNEEEEEEEEEEEEEEEEEGPESREMAMMQEGEHTVTSHSSIIHRLPGSDNLYDDPYQPEMTPGPLQPPAAPPTSTSSSSARRRAYCRNRDHFATIRTASLVSRQIQEHEQDSALREQLSGYKRMRRQHQKQLLALESRLRGEREEHSGRLQRELEAQRAGFGTEAEKLARRHQAIGEKEARAAQAEERKFQQHILGQQKKELAALLEAQKRTYKLRKEQLKEELQENPSTPKREKAEWLLRQKEQLQQCQAEEEAGLLRRQRQYFELQCRQYKRKMLLARHSLDQDLLREDLNKKQTQKDLECALLLRQHEATRELELRQLQAVQRTRAELTRLQHQTELGNQLEYNKRREQELRQKHAAQVRQQPKSLKVRAGQLPMGLPATGALGPLSTGTLSEEQPCSSGQEAILGQRMLGEEEEAVPERMILGKEGTTLEPEEQRILGEEMGTFSSSPQKHRSLVNEEDWDISKEMKESRVPSLASQERNIIGQEEAGAWNLWEKEHGNLVDMEFKLGWVQGPVLTPVPEEEEEEEEEGGAPIGTPRDPGDGCPSPDIPPEPPPSHLRQYPASQLPGFLSHGLLTGLSFAVGSSSGLLPLLLLLLLPLLAAQGGGGLQAALLALEVGLVGLGASYLFLCTALHLPPSLFLLLAQGTALGAVLSLSWRRGLMGVPLGLGAAWLLAWPSLALPLAAMAAGGKWVRQQGPQMRRGISRLWLRVLLRLSPMVFRALQGCAAVGDRGLFALYPKTNKNGFRSRLPVPWPRQGNPRTTQHPLALLARVWALCKGWNWRLARASHRLASCLPPWAVHILASWGLLKGERPSRIPRLLPRSQRRLGLSASRQLPPGTVAGRRSQTRRALPPWR |
| binds | Serine/threonine-protein kinase DCLK1 (protein, UniProt O08875 1-433) MLELIEVNGTPGSQLSTPRSGKSPSPSPTSPGSLRKQRISQHGGSSTSLSSTKVCSSMDENDGPGEEESDEGFQIPATITERYKVGRTIGDGNFAVVKECIERSTAREYALKIIKKSKCRGKEHMIQNEVSILRRVKHPNIVLLIEEMDVPTELYLVMELVKGGDLFDAITSTSKYTERDASGMLYNLASAIKYLHSLNIVHRDIKPENLLVYEHQDGSKSLKLGDFGLATIVDGPLYTVCGTPTYVAPEIIAETGYGLKVDIWAAGVITYILLCGFPPFRGSGDDQEVLFDQILMGQVDFPSPYWDNVSDSAKELINMMLLVNVDQRFSAVQVLEHPWVNDDGLPENEHQLSVAGKIKKHFNTGPKPSSTAAGVSVIATTALDKERQVFRRRRNQDVRGRYKAQPAPPELNSESEDYSPSSSETVRSPNSPF |
| binds | Uncharacterized protein C8orf76 homolog (protein, UniProt Q5BK24 1-374) METGCWVLGGEFEDSVFEQKPERQPEPPSSYGAKLCEPQWFYEETESSNDIEVLTLKKFRGDLAYRRQEYEKALQEYSSISKQLPSTNFAMKRDVQEGQARCLAHLGRHEEALEIAVDLESKATNTEHLTSALSLHLAIFSRRQSLEKTILYLQKLISLHPLNPWSWCKLAEAYLSPGPDLPALGESPQGQKSSASSDKAVRASSVHSGTGCLPFPAPSPDSAVFSVEASGCDTQQDMQNCLAARRAAAQTEAQRKACAALIRARLLLQLAQSQQTSFALEKNLRTQQEIAQKVKEFSFREDTLLLMEEAMGEDIVPERIKEELHPEVQCVGPAALTASVAASSKEFEDKWFRKVRDHFSPLEKQSHVDIQIMA |
| binds | Prostacyclin synthase (protein, UniProt Q62969 1-501) MSWAALLGLLAVLLLLLLLLSRRRARRPGEPPLDLGSIPWLGHALEFGKDAASFLTRMKEKHGDIFTVLVGGRYVTVLLDPHSYDTVVWDLRTRLDFHPYAIFLMERIFDLQLPNFNPSEEKARMKPTLMHKDLQALTEAMYTNLRTVLLGDSTEGGSGWQEKGLLEFSYSSLLSAGYLTLYGVEASPRTHESQALDRDHSADVFRTFRQLDLMLPKLARGSLSVGDKDHACSVKSRLWKLLSPAGLASRADRSSWLESYLRHLEEMGVSEDMQARALVLQLWATQGNMGPTAFWLLLFLLKNPEALDAVHAELKRIVWQAEKPVLQMTALPQKILDSMPVLDSVLNETLRLTAAPFITREVMADLALPMADRREFSLRRGDRLLLFPFLSPQKDPEIYTEPEVFKYNRFLNPDGSEKKDFYKDGKRLKNYNMPWGAGHNQCLGKSYAINSIKQFVVLLLTHFDLELVSEDTEVPEFDLSRYGFGLMQPEEDVPIRYRTRL |

The next lines start with the binder.

| Binder | binding |
| --- | --- |
| P2X purinoceptor 4 (protein, UniProt P51577 1-388) MAGCCSVLGSFLFEYDTPRIVLIRSRKVGLMNRAVQLLILAYVIGWVFVWEKGYQETDSVVSSVTTKAKGVAVTNTSQLGFRIWDVADYVIPAQEENSLFIMTNMIVTVNQTQSTCPEIPDKTSICNSDADCTPGSVDTHSSGVATGRCVPFNESVKTCEVAAWCPVENDVGVPTPAFLKAAENFTLLVKNNIWYPKFNFSKRNILPNITTSYLKSCIYNAQTDPFCPIFRLGTIVEDAGHSFQEMAVEGGIMGIQIKWDCNLDRAASLCLPRYSFRRLDTRDLEHNVSPGYNFRFAKYYRDLAGKEQRTLTKAYGIRFDIIVFGKAGKFDIIPTMINVGSGLALLGVATVLCDVIVLYCMKKKYYYRDKKYKYVEDYEQGLSGEMNQ | binds |
| Cdc42-interacting protein 4 (protein, UniProt P97531 1-547) MDWGTELWDQFEVLERHTQWGLDLLDKYVKFVKERVEVEQSYAKQLRSLVKKYLPKRPAKDDPEIKFSQQQSFVQLLQEVNDFAGQRELVAESLGIRVCLELAKYSQEMKQERKMHFQEGRRAQQQLENGFKQLENSKRKFERDCREAEKAAHTAERLDQDINATKADVEKAKQQAHLRNHMAEESKNEYAAQLQRFNRDQAHFYFSQMPQIFDKLQDMDERRATRLGAGYGLLSEAELQVVPIIGKCLEGMKVAAESVDAKNDSKVLIELHKSGFARPGDLEFEDFSQVMNRVPSDSSLGTPDGRPELRAASSRSRAKRWPFGKKNKTVVTEDFSHLPPEQQRKRLQQQLEERNRELQKEEDQREALKKMKDVYEKTPQMGDPASLEPRIAETLGNIERLKLEVQKYEAWLAEAESRVLSNRGDSLSRHTRPPDPPTTAPPDSSSSSNNSGSQDNKESSEEPPSEEGQDTPIYTEFDEDFEEPASPIGQCVAIYHFEGSSEGTVSMSEGEDLSLMEEDKGDGWTRVRRKQGGEGYVPTSYLRVTLN | binds |
| Ephrin-B1 (entry P52796) (protein, UniProt P52796 25-345) ATPLAKNLEPVSWSSLNPKFLSGKGLVIYPKIGDKLDIICPRAEAGRPYEYYKLYLVRPEQAAACSTVLDPNVLVTCNKPQQEIRFTIKFQEFSPNYMGLEFKKYHDYYITSTSNGSLEGLENREGGVCRTRTMKIVMKVGQDPNAVTPEQLTTSRPSKESDNTVKTATQAPGRGSQGDSDGKHETVNQQEKSGPGAGGSGSGDTDSFFNSKVALFAAVGAGCVIFLLIIIFLTVLLLKLRKRHRKHTQQRAAALSLSTLASPKGDSGTAGTEPSDIIIPLRTTENNYCPHYEKVSGDYGHPVYIVQEMPPQSPANIYYKV | binds |
| Hsp90 co-chaperone Cdc37-like 1 (protein, UniProt Q5XIC3 1-335) MEQPWPPPGPWSFPRTGGETEEESDLDVSPSSSHYSPVPDGGAQMYSHGIELACQRQKEFVKSSVACKWNLAEAQQKLGSLALHNSESLDQEHAKAQTAVSELRQREEEWRQKEEALVQRERTCLWNVDAISKDVFNKSFINQDKRKTEDEDKSQSFMQKYEQKIRHFGMLSRWDDSQRFLSDHPYLVCEETAKYLILWCFHLEAEQKGALMEQIAHQAVVMQFIMEMAKNCNVDPRGCFRLFFQKAKAEEEGYFEAFKNELEAFKARVRLYAQSQSFAPVTVENHAPHSGVGCIGSAEPLPQNPDSLQCCPPAPLCSVDSVVHKEDDDRMMDTV | binds |
| Arginine and glutamate-rich protein 1 (protein, UniProt Q5BJT0 1-271) MGRSRSRSSSRSKHTKSSKHNKKRSRSRSRSRDKERVRKRSKSRESKRNRRRESRSRSRSTNAAASRRERERASSPPDRIDIFGRTVSKRSSLDEKQKREEEEKKAEFERQRKIRQQEIEEKLIEEETARRVEELVAKRVEEELEKRKDEIEREVLRRVEEAKRIMEKQLLEELERQRQAELAAQKAREEEERAKREELERILEENNRKIAEAQAKLAEEQLRIVEEQRKIHEERMKLEQERQRQQKEEQKIILGKGKSRPKLSFSLKTQD | binds |
